Test results published in patent US20260217701A1, “SELECTIVE BET INHIBITORS AND USES THEREOF” (Tay Therapeutics Limited, priority 2022, published 2026).
“And” between values parts separate entries of the source, which are not always exact repeats. Equal entries are not always repeated. This continues a long series; more values of the same kind are listed elsewhere.

System: collagen-induced arthritis
Experiment: Collagen-induced arthritis (CIA) model: clinical scores and paw volume; for Animal paw volume percent change (%): reference of the scale not given here
Type: in vivo, Lewis rats
Settings: for Animal paw volume percent change (%) / Animal paw volume / clinical score (score, all limbs) / clinical score left hind limb / clinical score right hind limb / clinical score left forelimb / clinical score right forelimb: individual animals; for Overall Clinical Score: individual animals 1-8
[1] = group 6 CIA + Compound A 3 mg/kg, Day 18, 3 mg/kg
[2] = group 6 CIA + Compound A 3 mg/kg, Day 19, 3 mg/kg
[3] = group 6 CIA + Compound A 3 mg/kg, Day 20, 3 mg/kg
[4] = group 7 CIA + Compound A 10 mg/kg, Day 18
[5] = group 7 CIA + Compound A 10 mg/kg, Day 18, 10 mg/kg
[6] = group 7 CIA + Compound A 10 mg/kg, Day 19, 10 mg/kg
[7] = group 7 CIA + Compound A 10 mg/kg, Day 20, 10 mg/kg

Cn1cc(-c2ccccc2)c(-c2cn(C)c(=O)c3[nH]c(-c4cnn(C(F)(F)F)c4)cc23)cc1=O [Compound A, 6-methyl-4-(1-methyl-2-oxo-5-phenyl-1,2-dihydropyridin-4-yl)-2-(1-(trifluoromethyl)-1H-pyrazol-4-yl)-1,6-dihydro-7H-pyrrolo[2,3-c]pyridin-7-one]
Animal paw volume percent change (%) (Day 19, L paw, group 7 CIA + Compound A 10 mg/kg, 10 mg/kg): 23.75% and 58.37% and 12.83% and 30.48% and 33.46% and 8.30% and 36.58% and 9.20% | Animal paw volume percent change (%) (Day 19, R paw, group 5 CIA + Compound A 1 mg/kg, 1 mg/kg): 4.46% | Animal paw volume percent change (%) (Day 19, R paw, group 6 CIA + Compound A 3 mg/kg, 3 mg/kg): 22.47% and 20.69% and 30.12% | Animal paw volume percent change (%) (Day 19, R paw, group 7 CIA + Compound A 10 mg/kg, 10 mg/kg): 16.86% and 50.19% and 45.08% and 55.60% and 19.03% and 0.75% and 46.69% and 30.89% | Overall Clinical Score (Day 19, CIA + Compound A 3 mg/kg, 3 mg/kg): 3 | Overall Clinical Score (Day 19, CIA + Compound A 10 mg/kg, 10 mg/kg): 3 and 6 and 2 (2×) and 5 (3×) and 0 | Animal paw volume (Day 19, L paw, Group 5 (CIA + Compound A 1 mg/kg), 1 mg/kg): 1.40 mL | Animal paw volume (Day 19, L paw, Group 6 (CIA + Compound A 3 mg/kg), 3 mg/kg): 1.59 mL and 1.68 mL | Animal paw volume (Day 19, L paw, Group 7 (CIA + Compound A 10 mg/kg), 10 mg/kg): 1.62 mL and 2.04 mL and 1.50 mL and 1.76 mL (2×) and 1.80 mL and 1.44 mL and 1.43 mL | Animal paw volume (Day 19, R paw, Group 5 (CIA + Compound A 1 mg/kg), 1 mg/kg): 1.41 mL | Animal paw volume (Day 19, R paw, Group 6 (CIA + Compound A 3 mg/kg), 3 mg/kg): 1.64 mL and 1.58 mL and 1.69 mL | Animal paw volume (Day 19, R paw, Group 7 (CIA + Compound A 10 mg/kg), 10 mg/kg): 1.53 mL and 1.93 mL and 1.92 mL and 2.09 mL and 1.60 mL and 1.35 mL and 1.89 mL and 1.70 mL | Animal paw volume percent change (%) (Day 21, L paw, group 5 CIA + Compound A 1 mg/kg, 1 mg/kg): 5.20% | Animal paw volume percent change (%) (Day 21, L paw, group 6 CIA + Compound A 3 mg/kg, 3 mg/kg): 23.22% and 19.47% and 20.69% | Animal paw volume percent change (%) (Day 21, L paw, group 7 CIA + Compound A 10 mg/kg, 10 mg/kg): 23.75% and 66.15% and 14.34% and 52.79% and 33.83% and 8.30% and 41.25% and 9.20% | Animal paw volume percent change (%) (Day 21, R paw, group 5 CIA + Compound A 1 mg/kg, 1 mg/kg): 5.20% | Animal paw volume percent change (%) (Day 21, R paw, group 6 CIA + Compound A 3 mg/kg, 3 mg/kg): 26.22% and 20.69% and 30.12% | Animal paw volume percent change (%) (Day 21, R paw, group 7 CIA + Compound A 10 mg/kg, 10 mg/kg): 16.86% and 68.48% and 45.08% and 66.04% and 22.01% and 0.75% and 55.25% and 31.66% | Overall Clinical Score (Day 21, CIA + Compound A 10 mg/kg, 10 mg/kg): 3 (2×) and 6 (2×) and 4 and 0 and 5 and 2 | Animal paw volume (Day 21, L paw, Group 5 (CIA + Compound A 1 mg/kg), 1 mg/kg): 1.42 mL | Animal paw volume (Day 21, L paw, Group 6 (CIA + Compound A 3 mg/kg), 3 mg/kg): 1.65 mL and 1.57 mL and 1.58 mL | Animal paw volume (Day 21, L paw, Group 7 (CIA + Compound A 10 mg/kg), 10 mg/kg): 1.62 mL and 2.14 mL and 1.52 mL and 2.06 mL and 1.80 mL and 1.44 mL and 1.82 mL and 1.43 mL | Animal paw volume (Day 21, R paw, Group 5 (CIA + Compound A 1 mg/kg), 1 mg/kg): 1.42 mL | Animal paw volume (Day 21, R paw, Group 6 (CIA + Compound A 3 mg/kg), 3 mg/kg): 1.69 mL (2×) and 1.58 mL | Animal paw volume (Day 21, R paw, Group 7 (CIA + Compound A 10 mg/kg), 10 mg/kg): 1.53 mL and 2.17 mL and 1.92 mL and 2.23 mL and 1.64 mL and 1.35 mL and 2.00 mL and 1.71 mL | clinical score (score, all limbs) [1]: 3 (2×) and 2 (5×) | clinical score left hind limb [1]: 0 (2×) and 1 (4×) | clinical score right hind limb [1]: 1 | clinical score (score, all limbs) [2]: 3 | clinical score left hind limb [2]: 1 | clinical score (score, all limbs) [3]: 3 | clinical score left hind limb [3]: 1 | clinical score right hind limb [3]: 2 | clinical score left forelimb [4]: 0 | clinical score right forelimb [4]: 0 | clinical score (score, all limbs) [5]: 2 (3×) and 6 and 3 and 0 and 4 and 1 | clinical score left hind limb [5]: 1 (3×) and 3 and 0 (3×) and 2 | clinical score right hind limb [5]: 1 (3×) and 3 and 2 (3×) and 0 | clinical score right forelimb (group 7 CIA + Compound A 10 mg/kg, Day 19): 0 | clinical score (score, all limbs) [6]: 3 and 6 and 2 (2×) and 5 (3×) and 0 | clinical score left forelimb [6]: 0 (6×) and 1 (2×) | clinical score left hind limb [6]: 1 and 3 and 0 (3×) and 2 (3×) | clinical score right hind limb [6]: 2 (5×) and 3 (2×) and 0 | clinical score right forelimb (group 7 CIA + Compound A 10 mg/kg, Day 20): 0 | clinical score (score, all limbs) [7]: 3 (2×) and 6 (2×) and 4 and 0 and 5 and 2 | clinical score left forelimb [7]: 0 (7×) and 1 | clinical score left hind limb [7]: 1 (2×) and 3 (2×) and 2 (2×) and 0 (2×) | clinical score right hind limb [7]: 2 (5×) and 3 (2×) and 0
